# Data published in patent publication US12697330B2, “Therapeutic methods using vadadustat” (Akebia Therapeutics, Inc., priority 2021, dated 2026).
# Tested on: hemodialysis subjects
# Assay: Main Study: vadadustat versus epoetin alfa in hemodialysis subjects (Hb, ESA/RBC rescue, EPO levels)
# Format: in vivo, human
# Excerpt: The primary efficacy endpoint was to assess the mean change in Hb between baseline and the PEP (Weeks 10 to 12) in hemodialysis subjects.
# The first key secondary efficacy endpoint was the proportion of subjects with Hb values within the target range (10.0 to 11.0 g/dL, inclusive) at the PEP (Weeks 10 to 12).
# The second key secondary endpoint was the mean change in Hb from PEP (average Hb from Weeks 10 to 12) to the SEP (average Hb from Weeks 18 to 20) for subjects who transitioned to TIW vadadustat dosing. In the Main Study, the change in Hb from PEP to SEP for the 17 subjects who switched from QD to TIW was −0.4 g/dL.
compound,measurement,setting,value
"O=C(O)CNC(=O)c1ncc(-c2cccc(Cl)c2)cc1O [vadadustat, {[5-(3-chlorophenyl)-3-hydroxypyridine-2-carbonyl]amino}acetic acid]",EPO levels,high epoetin stratum,no particular change
same,EPO levels in Week 1 and Week 1+1 day,low epoetin stratum,Dose-dependent increase
same,increase in EPO levels relative to physiological range,low epoetin stratum,within what was considered to be physiological range
